Measured values from PubChem BioAssay AID256 (DTP/NCI, 2004).
The list shows only some results of the screen, not a fair sample: it gathers tests that were run many times, whatever their T/C, doses with no T/C, and many T/C values between a quarter and a half above the control. Other doses and runs of a compound stand elsewhere. T/C is the treated group as % of the vehicle group. Some doses have a count of surviving animals in place of a T/C: the source holds a T/C of zero for them, seemingly a mark for toxic or unscored doses. Some survivor counts are full or nearly so, which does not show that the dose was tolerated: survival well below the control is almost never listed, so the zero probably covers shortened survival too. Survivors were counted at the toxicity check, usually on the fifth day, unless a day is given; later deaths do not show. Schedules are NCI's codes, taken here to give the interval after Q, in days (D) or hours (H), and the number of doses after X.

Tested on: CD2F1 mice, L1210 leukemia ip, survival T/C
Test: NCI In Vivo Anticancer Drug Screen. Data for tumor model L1210 Leukemia (intraperitoneal) in CD2F1 (CDF1) mice
Details: vehicle: saline with Tween-80, higher T/C = longer survival
Description: The antitumor activity of compounds was measured in mice bearing transplantable tumors. Survival or tumor size were measured and the results are expressed as the measurement made in the treated group (T) divided by the measurement made in the vehicle treated control group (C). The tumor model used in this assay is L1210 Leukemia (intraperitoneal) in CD2F1 (CDF1) mice

[1] = T/C endpoint: mean survival time, dose: 400.0 mg/kg/injection, schedule: Q04DX003 (ip)

Structure (SMILES) | survivor count (T/C endpoint: mean survival time, dose: 100.0 mg/kg/injection, schedule: Q04DX003 (ip)) | survivor count (T/C endpoint: mean survival time, dose: 200.0 mg/kg/injection, schedule: Q04DX003 (ip)) | survivor count [1] | survivor count (T/C endpoint: median survival time, dose: 100.0 mg/kg/injection, schedule: Q01DX009 (ip)) | survivor count (T/C endpoint: mean survival time, dose: 200.0 mg/kg/injection, schedule: Q01DX009 (ip)) | survivor count (T/C endpoint: mean survival time, dose: 400.0 mg/kg/injection, schedule: Q01DX009 (ip))
Nc1nc(NCCCc2ccccc2)cc(=O)[nH]1 | 0 of 6 | 0 of 6 | 0 of 6 |  |  | 
CC(O)C1(O)C(O)CC(OC2c3cc4c(c(O)c3[C@@H]3C[C@@]2(C)OC32C=c3cc[nH]c3=N2)C(=O)c2cccc(O)c2C4=O)OC1C (some centres not stated) |  |  |  | 4 of 6 |  | 
C1=CCOCOC1 |  |  | 1 of 6 |  | 2 of 6 | 0 of 6
